Measured values from patent US20130079402A1, “Use of at Least One Dialkyl Thiosulfonate or Thiosulfinate for Reducing the Number of Apicomplexa in an Animal” (Pancosma S.A., priority 2010, published 2013).
Some entries share one result that the patent states for a list of compounds. For at least one compound, name, drawing or mass did not settle the structure.

System: sporozoites of Eimeria tenella
Assay: Viability of Eimeria tenella sporozoites after 24 hours incubation with test compound (trypan blue exclusion)
Type: cell-based
Conditions: concentration of 100 ppm
Description: The antiparasitic properties of the following compounds were tested: • a capsicum oleoresin (Capsicum frutescens pigment) containing 6% by weight of a mixture of capsaicin and dihydrocapsaicin; • carvacrol; • cinnamaldehyde; • curcumin; • anethole; • PTS (according to the invention); • PTSO (according to the invention); and • an extract (according to the invention) called “Garlicon 40” containing […] of organosulfur compounds characteristic of garlic/onion, 6.7% by weight of PTS and 34.3% by weight of PTSO.
A first series of samples consisting of an aqueous solution containing 100 ppm of the abovementioned test compounds, and a second series of samples containing only 10 ppm of these compounds, were prepared.
Next, in order to be able to test the effect of the abovementioned compounds on Eimeria, the following was carried out. Freshly sporulated oocysts were obtained from Eimeria tenella and were stored at 4° C. in a 2.5% (weight/volume) potassium dichromate solution until use.
The oocysts were then sterilized with bleach before isolating sporozoites. The walls of the oocysts were mechanically destroyed for 5 to 7 seconds using a ball mill having balls of 0.5 mm. […]
The viability of the sporozoites was then measured according to the trypan blue exclusion method. […]

Structure (SMILES)	percentage inhibition (inhibitory or destructive effect on the sporozoites)
CCCS[S+]([O-])CCC (centres unmarked) [PTS, di(n-propyl) thiosulfinate]	at least 74%
CCCSS(=O)(=O)CCC [PTSO, di(n-propyl) thiosulfonate]	at least 74%
